{
  "source": "PubChem BioAssay AID1347076",
  "about": "(National Center for Advancing Translational Sciences (NCATS), 2019)",
  "note": "Out of some 400,000 compounds screened, about 13,000 (3.2%) were called active. Inconclusive results, whose numbers are uncertain, are shown with a selection of clear calls. The call rests on the fitted dose curve; in most records, active means well fitted cell-killing curve with a large enough effect; inconclusive means small, poorly fitted or top-dose-only effect, or effect the other way; inactive means flat fitted curve, though single readings scatter. Where the call is inconclusive, the potency comes from a doubtful curve fit. On the % scale 0 is the no-effect control and ±100 the full control effect; potency means the concentration at half of the fitted maximal effect.",
  "data": [
    {"experiment": "qHTS assay for MDR1-selective chemotherapeutics: Primary screen using the drug-selected MDR subline cells KB-V1; further: nearly all actives have a fitted effect of over 60% in size", "details": "KB-V1 MDR cells viability, CellTiter-Glo, 72 h; activity change, negative = cytotoxicity: at 46.1 µM (top of the series)", "summary_of_the_method": "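Luminescent ATP read-out (CellTiter-Glo, 10 min) measures survival of drug-selected KB-V1 MDR cells after 72 h, 37 degrees C compound exposure. Medium: phenol-red-free DMEM, 10% FBS. Values from fitted concentration-response curves.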", "values": [
      {"smiles": "CCOC(=O)c1cccc(NC(=O)CSc2nnc(COc3ccccc3)n2CC)c1", "Potency": "active: 11.6 µM"},
      {"smiles": "Cc1cc(C)cc(NC(=S)N(CCN(C)C)C(C)c2cccnc2)c1", "note": "(centres undefined)", "Potency": "inconclusive: 16.4 µM [cytotoxic, single point]"},
      {"smiles": "COc1ccccc1N=c1oc2cc(O)ccc2cc1C(N)=O", "Potency": "inconclusive: 18.4 µM [cytotoxic, single point]"},
      {"smiles": "Cc1ccccc1C(=O)O/N=C(\\N)Cc1cccs1", "Potency": "inactive"},
      {"smiles": "COc1ccc(OCCC(=O)OCC(=O)NC2CCCCCCC2)cc1", "Potency": "inconclusive: 11.6 µM [rising, partial curve, poor fit]"},
      {"smiles": "COCCCn1c(SCC(=O)Nc2ccc(OC)cc2)nc2c(sc3ccccc32)c1=O", "Potency": "inactive"},
      {"smiles": "N#Cc1c(NC(=O)CSc2nnnn2C2CCCCC2)sc2c1CCCC2", "Potency": "active: 23.1 µM"},
      {"smiles": "O=C1C2C3C=CC(C3)C2C(=O)N1c1cccc(-c2nc3ccccc3o2)c1", "note": "(centres undefined)", "Potency": "inactive"},
      {"smiles": "CC(=O)Nc1ccc(S(=O)(=O)N2CCN(S(=O)(=O)N3CCC(C)CC3)CC2)cc1", "Potency": "inconclusive: 23.1 µM [rising, partial curve, poor fit]"},
      {"smiles": "Cc1ccc(CSC2=Nc3ccccc3C3=NC(=O)CN23)cc1", "Potency": "inconclusive: 18.4 µM [cytotoxic, partial curve]"},
      {"smiles": "O=C(N/N=C/c1ccc(-c2ccccc2[N+](=O)[O-])o1)c1cccnc1", "Potency": "inactive"},
      {"smiles": "Cc1c(C)n2c(SCC(=O)NCc3ccc4c(c3)OCO4)nnc2[nH]c1=O", "Potency": "inconclusive: 29.1 µM [rising, single point]"},
      {"smiles": "COc1ccc(N(C)C(=O)c2oc(=O)c3ccccc3c2-c2ccc(C)cc2)c(OC)c1", "Potency": "inconclusive: 20.6 µM [cytotoxic, single point]"},
      {"smiles": "CN(CC(=O)NCc1ccccc1)CC(=O)Nc1ccc(Cl)c(C(F)(F)F)c1", "Potency": "inconclusive: 25.9 µM [cytotoxic, single point]"},
      {"smiles": "Nn1c(SCC(=O)Nc2ccc3c(c2)OCCO3)nnc1-c1ccncc1", "Potency": "inconclusive: 29.1 µM [cytotoxic, single point]"},
      {"smiles": "Cc1ccc(/C=C2\\SC(=S)N(/N=C/c3cc([N+](=O)[O-])ccc3O)C2=O)o1", "Potency": "inactive"},
      {"smiles": "O=C(CSc1nc2ccc(Nc3nc(N4CCOCC4)nc(N4CCOCC4)n3)cc2s1)Nc1ccccc1Cl", "Potency": "inconclusive: 8.2 µM [cytotoxic, partial curve]"},
      {"smiles": "c1ccc(Cn2c(-c3ccccc3)nc3nc4ccccc4nc32)cc1", "Potency": "inconclusive: 5.8 µM [cytotoxic, partial curve, poor fit]"},
      {"smiles": "CCC(Sc1ccccn1)C(=O)Nc1cccc([N+](=O)[O-])c1", "note": "(centres undefined)", "Potency": "inconclusive: 20.6 µM [cytotoxic, single point]"},
      {"smiles": "CCCCN(Cc1cc2ccccc2[nH]c1=O)S(=O)(=O)c1ccc(C)cc1", "Potency": "inactive"},
      {"smiles": "Cc1ccc(Cl)cc1N1CCN(C(=O)c2ccc3nc[nH]c3c2)CC1", "Potency": "inconclusive: 3.66 µM [rising, full curve]"},
      {"smiles": "C/C(=N\\OCC(=O)OCC(=O)N(Cc1ccccc1)C(C)(C)C)c1ccc2c(c1)OCO2", "Potency": "inconclusive: 29.1 µM [rising, single point]"},
      {"smiles": "COc1ccc(N2CCN(C(=S)Nc3cccc(C)c3)CC2)cc1", "Potency": "inactive"},
      {"smiles": "CCOC(=O)c1ccc(N2C(=O)c3n[nH]c(-c4cccs4)c3C2c2cccc(O)c2)cc1", "note": "(centres undefined)", "Potency": "inconclusive: 20.6 µM [cytotoxic, single point]"},
      {"smiles": "Cc1ccc(NS(=O)(=O)c2ccc(C(=O)OCC(=O)NCC3CCCO3)cc2)cc1", "note": "(centres undefined)", "Potency": "inactive"},
      {"smiles": "N#Cc1nc(Nc2cc(F)cc(F)c2)c2ncn(CCO)c2n1", "Potency": "inconclusive: 29.1 µM [cytotoxic, single point]"},
      {"smiles": "Cc1cc(C)n(-c2nnc(C)n2N)n1", "Potency": "inconclusive: 23.1 µM [rising, single point]"},
      {"smiles": "Nc1ncnc2c1cnn2-c1ccccc1", "Potency": "inconclusive: 18.4 µM [cytotoxic, single point]"},
      {"smiles": "O=C1CN(S(=O)(=O)c2cccc(Cl)c2Cl)CCN1", "Potency": "inconclusive: 8.2 µM [rising, partial curve, poor fit]"},
      {"smiles": "O=C(c1ccoc1)N1CCN(c2cc(-c3cccnc3)nc3cc(-c4cccc(Cl)c4)nn23)CC1", "Potency": "inconclusive: 29.1 µM [cytotoxic, single point]"},
      {"smiles": "CCOC(=O)C1CCN(C(c2ccc(C)cc2)c2sc3nc(-c4ccco4)nn3c2O)CC1", "note": "(centres undefined)", "Potency": "inactive"},
      {"smiles": "COc1cc(OC)c(C2=NOC(C(=O)N3CCN(C(=O)c4ccco4)CC3)C2)cc1Cl", "note": "(centres undefined)", "Potency": "inconclusive: 5.8 µM [cytotoxic, partial curve]"},
      {"smiles": "C=CCn1c2ccccc2c2nnc(SCCCn3c(=O)[nH]c4ccccc43)nc21", "Potency": "inconclusive: 18.4 µM [cytotoxic, single point]"},
      {"smiles": "Cn1c(=NC(=O)CSCC(=O)N2CCOCC2)sc2ccccc21", "Potency": "inconclusive: 20.6 µM [cytotoxic, single point]"},
      {"smiles": "CCC1CCCCN1C(=S)NC(=O)c1cc(S(=O)(=O)N2CCOCC2)ccc1C", "note": "(centres undefined)", "Potency": "inconclusive: 0.0103 µM [cytotoxic, full curve, poor fit]"},
      {"smiles": "CCC(Sc1ccc2nnc(-c3ccc(F)cc3)n2n1)C(=O)OC", "note": "(centres undefined)", "Potency": "inactive"},
      {"smiles": "CC1(C)C(CSc2nc3ccccc3[nH]2)C1(Cl)Cl", "note": "(centres undefined)", "Potency": "inactive"},
      {"smiles": "C=CCN(c1ccc(C(=O)Nc2cccc(C)c2)cc1)S(C)(=O)=O", "Potency": "inactive"},
      {"smiles": "O=C(NC1CCCC1)C(c1cc2c(cc1[N+](=O)[O-])OCO2)N1CCCC1", "note": "(centres undefined)", "Potency": "inconclusive: 23.1 µM [cytotoxic, single point]"},
      {"smiles": "O=C(CCc1nc2ccccc2c(=O)[nH]1)N1CCN(S(=O)(=O)c2ccc(F)cc2)CC1", "Potency": "inconclusive: 29.1 µM [rising, single point]"},
      {"smiles": "COc1ccc(-c2cnc3n2CCCCC3)cc1", "Potency": "inactive"},
      {"smiles": "Cc1ccccc1OCCC(=O)Nc1cc(S(=O)(=O)N2CCOCC2)ccc1OC(C)C", "Potency": "inconclusive: 1.46 µM [cytotoxic, full curve, poor fit]"},
      {"smiles": "CCCC(=O)NC(=S)NNC(=O)c1ccc([N+](=O)[O-])cc1", "Potency": "inconclusive: 18.4 µM [cytotoxic, partial curve, poor fit]"},
      {"smiles": "Cc1ccc(CSc2nccc(-c3c(C)nc4ccccn34)n2)cc1", "Potency": "active: 6.51 µM"},
      {"smiles": "COC(=O)c1cc(-c2ccc(NC(C)=O)cc2)nc2ccccc12", "Potency": "inactive"},
      {"smiles": "Cc1ccc(C)c(C(=O)COC(=O)Cn2[nH]c(=O)c3ccccc3c2=O)c1", "Potency": "inconclusive: 29.1 µM [rising, single point]"},
      {"smiles": "NC(=O)c1cccc(-c2ccnc3c2CC(C(=O)Nc2ccccc2)O3)c1", "note": "(centres undefined)", "Potency": "inactive"},
      {"smiles": "COc1ccc(OC)c(/C(O)=C/C(=O)C(=O)Nc2ccccc2OC)c1", "Potency": "active: 9.2 µM"},
      {"smiles": "CN(CC(=O)Nc1ccc(Cl)cc1)C(=O)c1ccc(-n2cncn2)c([N+](=O)[O-])c1", "activity change, negative = cytotoxicity": "inconclusive: 31.9%"},
      {"smiles": "CN(c1ccccc1)c1ccc(/C=C(\\C#N)c2nnc3n2CCCCC3)cc1[N+](=O)[O-]", "Potency": "active: 10.3 µM"},
      {"smiles": "COc1ccc(-c2cc(C(F)(F)F)nc(SCCC(=O)Nc3ccc(F)cc3F)n2)cc1", "Potency": "inconclusive: 0.731 µM [cytotoxic, full curve]"},
      {"smiles": "COC(=O)c1cccc(NC(=O)NC2CCCN2S(=O)(=O)c2ccc(Cl)cc2)c1", "note": "(centres undefined)", "Potency": "inconclusive: 29.1 µM [cytotoxic, single point]"},
      {"smiles": "CC(C(=O)c1ccc(-c2ccccc2)cc1)[n+]1cccc(NC(=O)c2ccccc2)c1", "note": "(centres undefined)", "Potency": "inconclusive: 7.31 µM [rising, partial curve]"},
      {"smiles": "Cc1ccc(S(=O)(=O)N2CCCN(S(=O)(=O)c3ccc(C)cc3)CC2)cc1", "Potency": "inconclusive: 20.6 µM [cytotoxic, single point]"},
      {"smiles": "Cc1cccc(S(=O)(=O)C(C#N)c2nc3ccccc3nc2N2CC(C)OC(C)C2)c1", "note": "(centres undefined)", "Potency": "inconclusive: 23.1 µM [cytotoxic, single point]"},
      {"smiles": "C[C@@H](CO)NC(=O)c1ccc2c3n(nc2c1)-c1ccc(Cl)cc1CO3", "Potency": "inconclusive: 14.6 µM [rising, single point]"},
      {"smiles": "CCOc1ccc(C2CC(=O)c3c([nH]c(C(=O)OC)c3C)C2)cc1OC", "note": "(centres undefined)", "Potency": "inconclusive: 7.31 µM [cytotoxic, partial curve]"},
      {"smiles": "O=C(Nc1ccc(F)cc1F)c1ccc(-n2cnc3cccnc32)cc1", "Potency": "inconclusive: 20.6 µM [cytotoxic, partial curve, poor fit]"},
      {"smiles": "COc1ccc(CC(=O)NCc2n[nH]c(=S)n2-c2ccc(F)cc2)cc1", "Potency": "inactive"},
      {"smiles": "S=C(NC1CC1)NC1CCCc2ccccc21", "note": "(centres undefined)", "Potency": "inactive"},
      {"smiles": "c1ccc(-c2csc(=Nc3cccnc3)n2CC2CCCO2)cc1", "note": "(centres undefined)", "Potency": "inconclusive: 7.31 µM [cytotoxic, partial curve]"},
      {"smiles": "COc1ccc(OC)c(NC(=O)Cc2coc3cc(C)cc(C)c23)c1", "Potency": "active: 16.4 µM"},
      {"smiles": "O=C(CSc1ccc2nc(-c3ccccc3)cn2n1)Nc1ccccc1", "Potency": "inactive"},
      {"smiles": "CCOc1ccc(C2C(C(=O)c3ccco3)=C(O)C(=O)N2Cc2cccnc2)cc1OC", "note": "(centres undefined)", "Potency": "inconclusive: 25.9 µM [rising, partial curve, poor fit]"},
      {"smiles": "CCC(C(=O)OCC(=O)c1c(N)n(CC(C)C)c(=O)n(C)c1=O)c1ccccc1", "note": "(centres undefined)", "Potency": "inconclusive: 29.1 µM [cytotoxic, single point]"},
      {"smiles": "C[C@H]1COC(=O)CCCC/C=C\\C[C@H](CC(=O)N(CCO)Cc2ccccc2)C(=O)N1", "Potency": "inconclusive: 23.1 µM [rising, partial curve, poor fit]"},
      {"smiles": "Cc1ccccc1NC(=O)N1CCN(C(=O)c2ccco2)CC1", "Potency": "inactive"},
      {"smiles": "Cc1cccc(N(C)S(=O)(=O)c2ccc3[nH]cc(C(=O)N4CCOCC4)c(=O)c3c2)c1", "Potency": "inconclusive: 20.6 µM [rising, single point]"},
      {"smiles": "CCOC(=O)C1=C(c2ccccc2)Nc2nc(C)nn2C1c1cccc(OC)c1OC", "note": "(centres undefined)", "Potency": "inconclusive: 9.2 µM [cytotoxic, partial curve]"}
    ]}
  ]
}
